The supplement of paper PMC8256030
Several values for one entry are separate records, joined by “and”; a condition that tells them apart may be missing. Equal entries are not always repeated. Structures can show the parent of a compound that is named as a salt. This is one part of the list. Repeats in this data set agree poorly, so a single value says little.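 HEK293T cells were given each compound shortly before transfection with a reporter in which red mCherry is followed by the SARS-CoV-2 frameshift element and then GFP in the −1 frame, so GFP appears only after frameshifting.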

These compounds were tested on HEK293T (assay: percent viability (nuclei count) relative to control; higher = more viable cells). Conditions: 10 µM; 24 h.
For CC(C)[C@H](N)C(=O)O [valine], the percent viability was 260%.
For CC1(C)S[C@@H]2[C@H](NC(=O)COc3ccccc3)C(=O)N2[C@H]1C(=O)O [phenoxymethylpenicillin], the percent viability was 326%.
NC(=O)NNc1ccccc1 [phenicarbazide] showed a percent viability of 97.8%.
CCOC(=O)/C=C(C)/C=C/C=C(C)/C=C/c1c(C)cc(OC)c(C)c1C [Etretinate] showed a percent viability of 269%.
With O=c1[nH]sc2cc(Cl)ccc12 [ticlatone] the percent viability was 236%.
O=C(O[C@H]1CN2CCC1CC2)N1CCc2ccccc2[C@@H]1c1ccccc1 [Vesicare] showed a percent viability of 350%.
Work on N[C@@H]1[C@H]2CN(c3nc4c(cc3F)c(=O)c(C(=O)O)cn4-c3ccc(F)cc3F)C[C@@H]12 [trovafloxacin] yielded a percent viability of 220%.
CN1CCCC(n2nc(Cc3ccc(Cl)cc3)c3ccccc3c2=O)CC1 (stereo not given) was tested, and the percent viability was 342%.
In the case of COc1ccc(C(=O)c2ccccc2O)c(O)c1 [dioxybenzone], the percent viability is reported as 187%.
C=CC1=C(C(=O)O)N2C(=O)[C@@H](NC(=O)/C(=N\O)c3csc(N)n3)[C@H]2SC1 gave a percent viability of 302%.
Compound COc1cc([C@@H]2[C@H]3CO[C@@]4(O)C(=O)[C@@H]2C=C([C@H]2Oc5cc(O)cc(O)c5C(=O)[C@@H]2O)[C@@H]34)ccc1O [Silydianin] has a percent viability of 134%.
With CC(C(=O)O)c1ccc2c(c1)[nH]c1ccc(Cl)cc12 (stereo not given) [carprofen] the percent viability was 290%.
Work on O=C(CCn1cnc2c(=O)[nH]cnc21)Nc1ccc(C(=O)O)cc1 [leteprinim] yielded a percent viability of 57.6%.
Work on CCCCNc1c(C(=O)OCC)c(C)nc2c1cnn2CC [tracazolate] yielded a percent viability of 110%.
For CC12CC3CC(C)(C1)CC(N)(C3)C2 [memantine], the percent viability was 129% and 219%.
In the case of OC(CCN1CCCCC1)(c1ccccc1)c1ccccc1 [pridinol], the percent viability is reported as 317%.
With OCC(O)CN1CCN(c2ccccc2)CC1 (stereo not given) [dropropizine] the percent viability was 324%.
In the case of C[C@]12C=CC(=O)C=C1CC[C@@H]1[C@@H]2[C@@H](O)C[C@@]2(C)[C@H]1CC[C@]2(O)C(=O)CO [prednisolone], the percent viability is reported as 324% and 242% and 116%.
CCn1cc(C(=O)O)c(=O)c2cnc(N3CCCC3)nc21 [piromidic acid] was tested, and the percent viability was 373%.
C[C@]12CCC(=O)C=C1CC[C@@H]1[C@@H]2[C@@H](O)C[C@@]2(C)[C@H]1CC[C@]2(O)C(=O)COC(=O)CCC(=O)O was tested, and the percent viability was 155%.
CN1CCN(C2=Nc3cc(F)ccc3Cc3ccccc32)CC1 [fluperlapine] showed a percent viability of 278%.
O=C(O)Cc1ccc2c(c1)C(=O)c1ccccc1CO2 [isoxepac] was tested, and the percent viability was 191%.
With Cn1cnc([N+](=O)[O-])c1Sc1ncnc2nc[nH]c12 the percent viability was 126%.
CC(C)c1ccc2oc3nc(N)c(C(=O)O)cc3c(=O)c2c1 [amlexanox] gave a percent viability of 302%.
Compound C[N+]12CCCCC1CCC(=C(c1cccs1)c1cccs1)C2 (stereo not given) [tiquizium bromide] has a percent viability of 190%.
For CC(=O)OCC(=O)NCCCOc1cccc(CN2CCCCC2)c1 [Roxatidine acetate·HCl], the percent viability was 143%.
In the case of CCOC(=O)C1=C(C)NC(C)=C(C(=O)OCC)C1c1cccc2nonc12 [darodipine], the percent viability is reported as 87.4%.
C[C@]12C=CC(=O)C=C1CC[C@H]1[C@@H]3C[C@@H](O)[C@](O)(C(=O)CO)[C@@]3(C)C[C@H](O)[C@@]12F [triamcinolone] was tested, and the percent viability was 226% and 220%.
CN1CCc2c(c3ccccc3n2Cc2ccccc2)C1 [mebhydrolin] gave a percent viability of 303%.
Cc1[nH+]cc(COP(=O)([O-])[O-])c(CN(CCN(CC(=O)[O-])Cc2c(COP(=O)([O-])O)c[nH+]c(C)c2O)CC(=O)[O-])c1O.[Mn].[Na+].[Na+].[Na+] was tested, and the percent viability was 154%.
In the case of CCc1cc2c(cc1CC)CC(NC[C@H](O)c1ccc(O)c3[nH]c(=O)ccc13)C2 [Indacaterol], the percent viability is reported as 315%.
Compound O=C(O)C[C@H](O)C[C@H](O)/C=C/c1c(C2CC2)nc2ccccc2c1-c1ccc(F)cc1 [Pitavastatin] has a percent viability of 32%.
In the case of CCCCOc1ccc(C(=O)CCN2CCCCC2)cc1, the percent viability is reported as 189% and 175%.
Work on Nc1nc2c(ncn2COC(CO)CO)c(=O)[nH]1 yielded a percent viability of 160%.
Nc1ncnc2nc[nH]c12 was tested, and the percent viability was 113%.
For O=C(CCCN1CCC(O)(c2ccc(Br)cc2)CC1)c1ccc(F)cc1 [bromperidol], the percent viability was 181%.
With O=P(O)(O)C(O)(Cc1cccnc1)P(=O)(O)O [risedronic acid] the percent viability was 159% and 231%.
Compound CC(C(O)c1ccc(O)cc1)N1CCC(Cc2ccccc2)CC1 (stereo not given) [Ifenprodil tartrate] has a percent viability of 142%.
Compound CNC(=O)c1c(I)c(NC(C)=O)c(I)c(C(=O)O)c1I [iotalamic acid] has a percent viability of 211%.
O=C1[C@@H]2[C@H]3CC[C@H](C3)[C@@H]2C(=O)N1C[C@@H]1CCCC[C@H]1CN1CCN(c2nsc3ccccc23)CC1 [lurasidone] was tested, and the percent viability was 231%.
